Data on one sequence can be found in patent US6403302.

Protein sequences, listed by entry. Tags and fused reporters are not part of them. Residues count along the entry.
UniProt P08047, 270-785: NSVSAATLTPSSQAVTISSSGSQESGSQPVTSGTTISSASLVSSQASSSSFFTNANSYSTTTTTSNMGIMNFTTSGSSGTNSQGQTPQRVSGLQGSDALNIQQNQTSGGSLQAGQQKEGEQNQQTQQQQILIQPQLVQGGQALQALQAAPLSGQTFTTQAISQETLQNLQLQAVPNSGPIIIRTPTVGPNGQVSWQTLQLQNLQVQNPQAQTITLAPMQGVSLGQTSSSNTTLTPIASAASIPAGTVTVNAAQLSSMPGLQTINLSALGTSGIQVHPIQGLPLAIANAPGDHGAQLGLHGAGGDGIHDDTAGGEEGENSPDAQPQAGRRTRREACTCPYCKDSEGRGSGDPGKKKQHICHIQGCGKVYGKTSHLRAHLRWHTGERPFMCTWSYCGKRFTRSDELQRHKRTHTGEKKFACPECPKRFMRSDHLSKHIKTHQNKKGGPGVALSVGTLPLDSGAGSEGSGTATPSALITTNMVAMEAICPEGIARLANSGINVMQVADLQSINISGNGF

This series has as its target Sp1-516C (Sp1 C-terminal 516 amino acids) (Homo sapiens) (UniProt P08047). As to the kind of experiment: activity assay. Particulars: in vitro transcription in Drosophila Kc nuclear extract, 10 mM MgCl2, 70 mM KCl, 22 C; little activation when triple helix (oligomer 1) preformed; purified recombinant protein.

Regarding “GATCTGAGAAAGGAGAGAAAAAGGGGCGGGGCATGCATTG / ACTCTTTCCTCTCTTTTTCCCCGCCCCGTACGTAACCTAG”, the activity on this sequence (fold activation) is 1.5.
